Laboratory results: PMC8973010
These are yes or no findings as the source states them, for the method shown. In cells and extracts the contact can be indirect. A yes stands for co-enrichment or nearness to the bait. Other partners may have been found. Sequences can lack the tags named with a protein.

By UniProt entry, the sequences of proteins in these tests, tags left out. Residues count along the entry.
UniProt Q9NYJ7, residues 27-618: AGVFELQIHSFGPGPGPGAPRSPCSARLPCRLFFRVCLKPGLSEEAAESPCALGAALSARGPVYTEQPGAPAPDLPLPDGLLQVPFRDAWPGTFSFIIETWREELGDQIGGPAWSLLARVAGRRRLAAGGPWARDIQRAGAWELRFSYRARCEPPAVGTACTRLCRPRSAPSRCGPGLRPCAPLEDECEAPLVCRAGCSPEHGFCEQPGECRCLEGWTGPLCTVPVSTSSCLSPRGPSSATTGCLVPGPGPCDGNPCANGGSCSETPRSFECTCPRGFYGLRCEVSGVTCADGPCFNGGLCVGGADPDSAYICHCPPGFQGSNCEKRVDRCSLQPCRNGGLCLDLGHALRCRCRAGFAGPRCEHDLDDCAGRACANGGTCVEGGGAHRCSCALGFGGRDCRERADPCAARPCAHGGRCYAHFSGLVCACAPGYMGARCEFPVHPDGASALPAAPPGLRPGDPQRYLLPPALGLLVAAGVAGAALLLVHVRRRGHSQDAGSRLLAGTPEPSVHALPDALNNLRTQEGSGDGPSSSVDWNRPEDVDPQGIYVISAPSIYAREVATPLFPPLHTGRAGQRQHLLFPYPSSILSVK
UniProt P08174, residues 35-353: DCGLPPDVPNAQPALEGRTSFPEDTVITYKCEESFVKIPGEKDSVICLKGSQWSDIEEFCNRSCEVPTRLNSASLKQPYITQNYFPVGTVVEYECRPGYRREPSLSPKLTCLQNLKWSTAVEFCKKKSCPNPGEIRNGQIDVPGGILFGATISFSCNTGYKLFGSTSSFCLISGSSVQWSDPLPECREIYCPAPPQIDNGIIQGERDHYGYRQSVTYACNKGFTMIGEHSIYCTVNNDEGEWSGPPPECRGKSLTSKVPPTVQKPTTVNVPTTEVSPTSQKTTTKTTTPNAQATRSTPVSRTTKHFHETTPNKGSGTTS
UniProt P11142: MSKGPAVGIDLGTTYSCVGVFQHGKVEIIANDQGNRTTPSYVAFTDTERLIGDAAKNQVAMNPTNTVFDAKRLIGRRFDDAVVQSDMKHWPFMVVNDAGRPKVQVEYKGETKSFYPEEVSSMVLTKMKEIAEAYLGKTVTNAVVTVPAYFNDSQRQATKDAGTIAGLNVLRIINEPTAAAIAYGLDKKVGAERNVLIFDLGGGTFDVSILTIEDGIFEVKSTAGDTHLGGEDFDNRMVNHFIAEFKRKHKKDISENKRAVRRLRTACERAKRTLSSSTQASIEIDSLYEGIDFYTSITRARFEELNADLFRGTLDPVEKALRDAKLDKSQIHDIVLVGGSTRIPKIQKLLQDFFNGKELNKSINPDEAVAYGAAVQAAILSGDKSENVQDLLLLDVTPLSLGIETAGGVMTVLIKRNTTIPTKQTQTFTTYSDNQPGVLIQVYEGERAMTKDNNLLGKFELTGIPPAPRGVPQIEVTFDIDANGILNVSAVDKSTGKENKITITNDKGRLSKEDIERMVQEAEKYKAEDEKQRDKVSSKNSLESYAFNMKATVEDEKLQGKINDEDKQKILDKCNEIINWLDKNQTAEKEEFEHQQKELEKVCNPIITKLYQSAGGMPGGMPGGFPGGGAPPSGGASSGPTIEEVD
UniProt P10321, residues 25-366: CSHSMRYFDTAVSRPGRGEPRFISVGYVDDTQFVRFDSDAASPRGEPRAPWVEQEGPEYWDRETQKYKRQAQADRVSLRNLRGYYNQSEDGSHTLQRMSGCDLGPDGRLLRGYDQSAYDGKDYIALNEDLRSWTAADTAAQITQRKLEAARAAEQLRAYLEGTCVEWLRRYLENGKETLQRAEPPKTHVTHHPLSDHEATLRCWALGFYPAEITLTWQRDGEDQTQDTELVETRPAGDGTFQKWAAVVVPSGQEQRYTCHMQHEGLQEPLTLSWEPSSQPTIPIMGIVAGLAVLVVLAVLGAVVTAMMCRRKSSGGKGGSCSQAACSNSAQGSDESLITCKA

B1: histocompatibility minor 13 (protein, UniProt Q8TCT9 1-377)
chain: MDSALSDPHNGSAEAGGPTNSTTRPPSTPEGIALAYGSLLLMALLPIFFGALRSVRCARGKNASDMPETITSRDAARFPIIASCTLLGLYLFFKIFSQEYINLLLSMYFFVLGILALSHTISPFMNKFFPASFPNRQYQLLFTQGSGENKEEIINYEFDTKDLVCLGLSSIVGVWYLLRKHWIANNLFGLAFSLNGVELLHLNNVSTGCILLGGLFIYDVFWVFGTNVMVTVAKSFEAPIKLVFPQDLLEKGLEANNFAMLGLGDVVIPGIFIALLLRFDISLKKNTHTYFYTSFAAYIFGLGLTIFIMHIFKHAQPALLYLVPACIGFPVLVALAKGEVTEMFSYEESNPKDPAAVTESKEGTEASASKGLEKKEK

Molecular target: delta-like canonical Notch ligand 3 (human (endogenous in MKN45)) (UniProt Q9NYJ7)
Assay: affinity purification with mass spectrometry; DLL3 antibody (MAB4315) added to 500 ug MKN45 cell lysate, 4°C overnight; captured on protein A and protein G agarose; washed three times with ice-cold lysis buffer; proteins of the IgG control group and common pollutants excluded

binding, binds:
complement decay-accelerating factor (from UniProt P08174 35-353)
heat shock cognate 71 kDa protein (from UniProt P11142 1-646)
human leukocyte antigen class I histocompatibility antigen, C (from UniProt P10321 25-366)
B1
